Hit rate of the full screen: of about 320,000 compounds, about 22,000 (6.9%) were called active. The inconclusive results got no clear call from the source; some entries with a clear call stand among them for comparison. Calls come from the whole dose curve; as a rule, active = well fitted inhibition curve with a large enough effect; inconclusive = small, poorly fitted or top-dose-only effect, or another doubt; inactive = no such curve, though single readings can be large or run the other way. A potency beside an inconclusive call is a rough fit, not a confirmed value.
Experiment: Primary qHTS for delayed death inhibitors of the malarial parasite plastid, 96 hour incubation
Conditions: P. falciparum luciferase reporter growth; series mostly up to 28.7 µM
Summary of the method: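 Luminescence readout: decreased luciferase signal marks inhibited growth of reporter-expressing P. falciparum in infected red cells (2% hematocrit, 0.05% parasitemia final), exposed to compound two generations (96 h, 37 C, 5% CO2).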
Potency is the fitted concentration of half-maximal effect.

| Structure (SMILES) | Potency |
| --- | --- |
| c1ccc(-c2noc(CN3CCN(C(c4ccccc4)c4ccccc4)CC3)n2)cc1 | inactive |
| C#CCOCCOCCOCCNc1nc(N2CCOCC2)nc(N2CCN(C(=O)CCCCCCCCCCNC(=O)[C@@H]([C@H](C)CC)n3cc(CCCCCN)nn3)CC2)n1 | active: 0.828 µM |
| COCCOC(=O)C1=C(C)N(Cc2ccccc2)C(=O)NC1c1ccc(OC)cc1 (configuration not stated) | inconclusive: 5.22 µM [inhibitor, partial curve] |
| O=C(NCCc1ccc(Cl)cc1)c1nnc(Cc2ccc(Cl)cc2)o1 | inactive |
| COc1ccc(OCc2cc(C(=O)NCC3CCOCC3)no2)c(Cl)c1 | inconclusive: 11.7 µM [inhibitor, partial curve] |
| CCn1nc(C(=O)Nc2ccc(Cl)c(S(=O)(=O)N3CCOCC3)c2)c2ccccc2c1=O | inconclusive: 8.28 µM [inhibitor, partial curve] |
| COc1ccc(/C=C/c2cc(=O)c3cc(Cl)ccc3o2)cc1 | inactive |
| FC(F)(F)c1ccc(Cl)c(-n2c(-c3cc(-c4ccco4)[nH]n3)n[nH]c2=S)c1 | inconclusive: 9.28 µM [inhibitor, partial curve] |
| COc1ccc2c(c1)C(c1ccc(C)o1)=NNC(c1cccnc1)=N2 | inconclusive: 18.5 µM [inhibitor, single point] |
| COc1cccc(CC(=O)OCC(=O)N(C)CC(=O)Nc2ccccc2Cl)c1 | inconclusive: 18.5 µM [inhibitor, partial curve, poor fit] |
| CCOc1c(S(=O)(=O)NC2CC(C)(C)NC(C)(C)C2)ccc(Cl)c1Cl | inconclusive: 4.15 µM [inhibitor, partial curve, poor fit] |
| CCOC(=O)N/N=C/c1ccc(Oc2ccccc2)cc1 | inconclusive: 9.28 µM [inhibitor, partial curve] |
| CN(CC(=O)Nc1ccc(S(=O)(=O)N2CCCC2)cc1)Cc1ccc(Cl)cc1Cl | inconclusive: 13.1 µM [inhibitor, partial curve, poor fit] |
| O=C(NCc1ccco1)C(c1cccnc1)N(C(=O)Cn1nnc2ccccc21)c1ccccc1 (configuration not stated) | inconclusive: 11.7 µM [inhibitor, partial curve, poor fit] |
| CN1C(C(=O)NCc2ccccc2)CC2Cn3c(nc4cc(Cl)c(Cl)cc43)C21 (configuration not stated) | inactive |
| COCC(=O)N(Cc1cc2ccc(C)cc2[nH]c1=O)c1ccc(OC)cc1 | inactive |
| COc1cccc(-c2nn(C)c3sc(C(=O)NCc4ccc(C)o4)cc23)c1 | inconclusive: 1.04 µM [inhibitor, partial curve, poor fit] |

— PubChem BioAssay AID504834 (National Center for Advancing Translational Sciences (NCATS), 2011)
